# Measured values as given in PubChem BioAssay AID504834 (National Center for Advancing Translational Sciences (NCATS), 2011).
# The campaign covered roughly 320,000 compounds. About 22,000 (6.9%) were called active. The inconclusive results got no clear call from the source; some entries with a clear call stand among them for comparison. Calls follow the shape of the dose curve; as a rule, active = well fitted inhibition curve with a large enough effect; inconclusive = small, poorly fitted or top-dose-only effect, or another doubt; inactive = no such curve, though single readings can be large or run the other way. A potency beside an inconclusive call is a rough fit, not a confirmed value.
# Test: Primary qHTS for delayed death inhibitors of the malarial parasite plastid, 96 hour incubation
# Conditions: P. falciparum luciferase reporter growth; series mostly up to 28.7 µM; activity change, negative = inhibition: at the top concentration
# Method in brief: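 Delayed-death screen, second-generation endpoint: infected erythrocytes, 2% hematocrit, 0.05% parasitemia final; 96 hours at 37 C, 5% CO2; luciferase detection reagent; luminescence decrease equals reduced growth.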
# % is scaled to controls: 0 for no effect and ±100 for the full control effect; potency is read from the fitted curve at half-maximal effect.
SMILES,"activity change, negative = inhibition",Potency
CN(CC(=O)Nc1cccc(Cl)c1)S(=O)(=O)c1ccc2c(c1)n(C)c(=O)c(=O)n2C,inactive: 0.9%,–
COc1ccc(C2CC2/C(=N/O)c2ccccc2)cc1 (stereo unspecified),inactive: 130%,–
Cc1cnc(NC(=O)CN2CCCCC2)s1,inactive: -18%,–
CCC(C)c1ccccc1N1CC(C(=O)Nc2ccc(S(=O)(=O)N3CCOCC3)cc2)CC1=O (stereo unspecified),–,"inconclusive: 6.57 µM [inhibitor, partial curve]"
COC(=O)CC[C@@H](C(=O)O)N1C(=O)c2ccccc2C1=O,–,"inconclusive: 0.165 µM [inhibitor, full curve, poor fit]"
CCCCCn1c(C(Cc2ccccc2)NC(=O)COC)nc2ccccc21 (stereo unspecified),–,"inconclusive: 11.7 µM [inhibitor, partial curve]"
CC(C)NCC(O)COc1cccc2ccccc12 (stereo unspecified),–,"inconclusive: 18.5 µM [inhibitor, single point]"
C/C=C/CSc1nc2c(c(=O)[nH]c(=O)n2C)n1Cc1ccc(C)cc1,–,"inconclusive: 10.4 µM [inhibitor, single point]"
COc1cccc(N2C(=NC(=O)C3CCCO3)SC3CS(=O)(=O)CC32)c1 (stereo unspecified),–,"inconclusive: 18.5 µM [inhibitor, single point]"
CCOc1cc(C(=O)OCC(=O)c2c(C)[nH]c3ccccc23)ccc1OCC(=O)N1CCOCC1,inactive: -29.7%,–
Cc1ccc(-n2nc3c(=O)n(CCCC(=O)NCc4ccc(C)o4)nc(C)c3c2C)cc1,–,"inconclusive: 11.7 µM [inhibitor, single point]"
CCS(=O)(=O)N1CCN(C(=O)c2cccs2)CC1,–,active: 4.65 µM
O=C(CCN1CCN(CCO)CC1)Nc1ccc(OCc2ccccc2)cc1,–,"inconclusive: 10.4 µM [inhibitor, single point]"
O=C(NC(Cc1ccccc1)C(=O)N1CCN(c2ccccc2O)CC1)c1ccccc1 (stereo unspecified),–,active: 6.57 µM
CC(C)(C)NC(=O)CSc1nc2ccccc2c(=O)[nH]1,inactive: 77.1%,–
CC(=O)Nc1sc(N/N=C/c2ccccc2)nc1-c1ccc(C)cc1,–,"inconclusive: 18.5 µM [inhibitor, single point]"
CCOC(=O)c1sc(NC(=O)c2ccc(OC(C)=O)cc2)nc1C,–,"inconclusive: 11.7 µM [inhibitor, single point]"
Cc1nc2ncnn2c(C)c1CCC(=O)NC(C)CCc1ccco1 (stereo unspecified),–,active: 11.7 µM
CC(=O)OC1c2c(ccc3ccc(=O)oc23)OC(C)(C)C1OC(=O)CC(C)C (stereo unspecified),–,"inconclusive: 18.5 µM [inhibitor, single point]"
OCC[C@H]1C[C@H](O)[C@@H](O)[C@]2(Cc3ccccc3CO2)O1,inactive: 85.6%,–
Cc1cccc(N(CC(=O)NC(C)(C)C)C(=O)CCC(=O)Nc2ccccn2)c1,–,"inconclusive: 9.28 µM [inhibitor, single point]"
Cc1ccc(OCC(=O)N2CCN(C(=O)c3cccs3)CC2)cc1,–,"inconclusive: 18.5 µM [inhibitor, single point]"
COc1ccccc1CNS(=O)(=O)c1ccc(-c2cnc(C3CC3)o2)cc1,–,"inconclusive: 6.57 µM [inhibitor, partial curve, poor fit]"
COc1ccc(N(CC(=O)NC2CCCCC2)C(=O)CNC(=O)c2cccs2)cc1,–,"inconclusive: 13.1 µM [inhibitor, partial curve, poor fit]"

SMILES,"activity change, negative = inhibition",Potency
Cc1ccc2c(c1)C(C)(C)[C@]1(C)NC(=O)CCN21,–,"inconclusive: 10.4 µM [inhibitor, single point]"
C=CCn1c(N2CCOCC2)nc2c1c(=O)[nH]c(=O)n2C,inactive: 1.3%,–
O=C(c1cc(-c2cccs2)nc2ccccc12)N1CCN(c2ccccc2)CC1,–,"inconclusive: 8.28 µM [inhibitor, partial curve, poor fit]"
CCN(CC)C(=O)N1c2ccccc2CC(N(CC)CC)c2ccccc21 (stereo unspecified),–,"inconclusive: 10.4 µM [inhibitor, partial curve, poor fit]"
Cc1ccc(Cl)cc1NC(=O)c1cc(NC(=O)C2CCCCC2C(=O)O)ccc1N1CCOCC1 (stereo unspecified),inactive: 56.7%,–
O=C(C1CCN(S(=O)(=O)c2cccc3cccnc23)CC1)N1CCc2ccccc21,–,"inconclusive: 9.28 µM [inhibitor, single point]"
CCOC(=O)c1ccc(S(=O)(=O)Nc2nc3cc(S(=O)(=O)NC4=NCCCCC4)ccc3s2)cc1,–,active: 13.1 µM
O=C(c1cc2ccccc2oc1=O)N(Cc1cccs1)Cc1cccs1,–,"inconclusive: 5.22 µM [inhibitor, partial curve, poor fit]"
COc1ccc(/C(C)=N/NC(=S)NCCc2ccccc2)c(O)c1,–,"inconclusive: 0.329 µM [inhibitor, full curve, poor fit]"
COc1cccc(-n2c(=O)c3sccc3n(CC(=O)NC3CCCCC3)c2=O)c1,inactive: 19.5%,–
CC1Sc2ccc(S(=O)(=O)CCC(=O)Nc3ccccn3)cc2NC1=O (stereo unspecified),–,active: 9.28 µM
COc1ccc2cc([C@@H](C)C(=O)O)ccc2c1,inactive: 0.666%,–
COC(=O)c1cc(C(=O)OCC(=O)N(C)C2CCS(=O)(=O)C2)cc([N+](=O)[O-])c1 (stereo unspecified),inactive: 7.96%,–
O=[N+]([O-])c1ccc(OCCCOc2cccc3cccnc23)cc1,–,"inconclusive: 18.5 µM [inhibitor, single point]"
CCOc1ccc(NC(=O)NC2CCCc3ccccc32)cc1 (stereo unspecified),inactive: 16.2%,–
CCOC(=O)C1=C(C)N=c2s/c(=C\c3cccc(OCC(=O)O)c3)c(=O)n2C1c1ccccc1 (stereo unspecified),–,active: 0.928 µM
Cc1cccc(NC(=O)COC(=O)c2cccc3c2C(=O)c2ccccc2C3=O)c1C,–,active: 10.4 µM
CC(=O)c1ccc(OCC(=O)N(C)CC(=O)Nc2ccc(N3CCOCC3)cc2)cc1,inactive: 6.45%,–
O=C(NCCCO)C(=O)c1c(-c2ccccc2)cc2ccccn12,inactive: 9.4%,–
O=C(O)CSc1c2c(nc3cc(C(=O)Nc4cccc(C(F)(F)F)c4)ccc13)CCC2,–,"inconclusive: 18.5 µM [inhibitor, single point]"
CSc1ccc(C2(O)Cc3cccc[n+]3C2c2ccccc2)cc1 (stereo unspecified),–,"inconclusive: 13.1 µM [inhibitor, single point]"
CSc1ccc(/C=N/NC(=O)CN2CCN(Cc3ccc(Cl)cc3)CC2)cc1,–,"inconclusive: 1.31 µM [inhibitor, partial curve, poor fit]"
O=C(Nc1ccc(-c2csc(Nc3ccccc3)n2)cc1)c1ccccc1,–,"inconclusive: 18.5 µM [inhibitor, single point]"
CCn1c(SCc2cccc(F)c2)nnc1-c1cccnc1,–,"inconclusive: 18.5 µM [inhibitor, single point]"

SMILES,"activity change, negative = inhibition",Potency
Cc1cc2c(c(=O)n1Cc1cccnc1)C(c1cccs1)C(C#N)=C(N)O2 (stereo unspecified),–,"inconclusive: 18.5 µM [inhibitor, single point]"
COc1ccccc1Cn1c(/C=C/c2ccccc2)nc2ccccc21,–,"inconclusive: 18.5 µM [inhibitor, single point]"
CCOC(=O)C(c1ccccc1)C(Nc1ccc(F)cc1)c1ccccn1 (stereo unspecified),–,"inconclusive: 13.1 µM [inhibitor, single point]"
Cc1ccc(CN(c2ccc(C(=O)N3CCOCC3)cc2)S(C)(=O)=O)cc1,–,"inconclusive: 0.928 µM [inhibitor, partial curve]"
OCCN1CCOCCN(CCO)CCN(CCO)CC1,–,"inconclusive: 2.94 µM [inhibitor, single point]"
CN(C)c1cccc2c(S(=O)(=O)N3CCCC3)cccc12,inactive: -2.52%,–
CN(C)S(=O)(=O)Nc1ccccc1F,–,"inconclusive: 0.0928 µM [inhibitor, full curve, poor fit]"
CCOC(=O)N1CCC(N(CCN(C)C)C(=S)Nc2cc(C)ccc2C)CC1,–,"inconclusive: 11.7 µM [inhibitor, partial curve, poor fit]"
CC(CCc1ccccc1)NC(=O)c1ccc(-n2cncn2)c([N+](=O)[O-])c1 (stereo unspecified),inactive: 3.1%,–
CN(c1ccc(OCC(=O)Nc2nc(-c3ccccc3)cs2)cc1)S(=O)(=O)c1ccc(F)cc1,–,"inconclusive: 16.5 µM [inhibitor, single point]"
CN(CCNC(=O)c1ccc(CS(=O)(=O)c2ccc(Br)cc2)o1)CCc1ccccc1,–,"inconclusive: 18.5 µM [inhibitor, single point]"
Cc1nnc(NCc2n[nH]c(=O)c3ccccc23)c2ccccc12,inactive: 24.1%,–
COc1ccc(/C=N/Nc2ccc(C(=O)O)cc2)c(OC)c1OC,–,"inconclusive: 0.828 µM [inhibitor, full curve]"
CC(C)(C)OC(=O)N1Cc2ccccc2C[C@H]1C(=O)O,inactive: -24.4%,–
CCc1ccc2oc(C(=O)NCCc3ccc(S(N)(=O)=O)cc3)cc(=O)c2c1,–,"inconclusive: 18.5 µM [inhibitor, single point]"
Cc1cc(Br)ccc1NC(=O)c1ccco1,–,"inconclusive: 11.7 µM [inhibitor, partial curve, poor fit]"
Cc1nc2ccccc2nc1OCc1ccccc1,inactive: 28.7%,–
O=C(NCCc1ccccc1)C(=O)NCC1CCNCC1,inactive: -23.8%,–
COC(=O)C1=C(c2ccc(OC)c(OC)c2)C[C@@H]2CC[C@H]1N2C(=O)NCc1ccco1,–,"inconclusive: 10.4 µM [inhibitor, single point]"
O=C(CSc1nnc(-c2ccc(Cl)cc2)n1-c1ccccc1)N/N=C/c1ccccc1C(=O)O,–,"inconclusive: 2.94 µM [inhibitor, partial curve, poor fit]"
CN(Cc1ccco1)S(=O)(=O)c1ccc(CN2C(=O)c3cccnc3C2=O)s1,inactive: -15%,–
O=C(N/N=C/c1cc([N+](=O)[O-])ccc1O)C12CC3CC(CC(C3)C1)C2,inactive: 33.7%,–
CCC1Oc2ccccc2N(CC(=O)NCCCN2CCN(c3ccc(OC)cc3)CC2)C1=O (stereo unspecified),–,"inconclusive: 18.5 µM [inhibitor, single point]"

# A different layout for some results above:
SMILES | activity change, negative = inhibition | Potency
CC(=O)OC1c2c(ccc3ccc(=O)oc23)OC(C)(C)C1OC(=O)CC(C)C (stereo unspecified) | – | inconclusive: 18.5 µM [inhibitor, single point]
OCC[C@H]1C[C@H](O)[C@@H](O)[C@]2(Cc3ccccc3CO2)O1 | inactive: 85.6% | –
Cc1cccc(N(CC(=O)NC(C)(C)C)C(=O)CCC(=O)Nc2ccccn2)c1 | – | inconclusive: 9.28 µM [inhibitor, single point]
Cc1ccc(OCC(=O)N2CCN(C(=O)c3cccs3)CC2)cc1 | – | inconclusive: 18.5 µM [inhibitor, single point]
COc1ccccc1CNS(=O)(=O)c1ccc(-c2cnc(C3CC3)o2)cc1 | – | inconclusive: 6.57 µM [inhibitor, partial curve, poor fit]
